Test results from publication PMC4669755.
These are yes or no findings as the source states them, for the method shown. In cells and extracts the contact can be indirect. Some binding calls cover weakened binding; strength is not graded here.

Chains of the proteins cited; added tags and fusions are not shown. Residues count along the entry.
UniProt P19022, residues 160-906: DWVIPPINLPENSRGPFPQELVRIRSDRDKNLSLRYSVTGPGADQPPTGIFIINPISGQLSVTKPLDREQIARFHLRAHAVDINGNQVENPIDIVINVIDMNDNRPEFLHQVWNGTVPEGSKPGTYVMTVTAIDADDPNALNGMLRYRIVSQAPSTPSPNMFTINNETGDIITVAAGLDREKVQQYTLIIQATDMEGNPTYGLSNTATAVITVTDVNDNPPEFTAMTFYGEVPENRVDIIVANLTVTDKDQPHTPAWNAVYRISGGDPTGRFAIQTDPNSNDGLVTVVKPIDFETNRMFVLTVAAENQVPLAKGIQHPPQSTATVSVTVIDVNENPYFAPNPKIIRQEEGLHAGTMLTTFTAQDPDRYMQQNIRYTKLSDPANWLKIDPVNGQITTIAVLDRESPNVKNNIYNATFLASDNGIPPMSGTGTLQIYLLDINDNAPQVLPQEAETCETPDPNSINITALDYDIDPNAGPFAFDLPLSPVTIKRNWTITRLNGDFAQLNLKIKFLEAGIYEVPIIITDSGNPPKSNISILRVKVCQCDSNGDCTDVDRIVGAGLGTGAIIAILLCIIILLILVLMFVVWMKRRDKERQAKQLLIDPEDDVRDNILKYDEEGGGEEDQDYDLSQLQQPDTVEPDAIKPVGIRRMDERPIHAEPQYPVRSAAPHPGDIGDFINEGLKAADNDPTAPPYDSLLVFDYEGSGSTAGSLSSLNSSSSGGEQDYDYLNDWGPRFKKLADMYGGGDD
UniProt P35222: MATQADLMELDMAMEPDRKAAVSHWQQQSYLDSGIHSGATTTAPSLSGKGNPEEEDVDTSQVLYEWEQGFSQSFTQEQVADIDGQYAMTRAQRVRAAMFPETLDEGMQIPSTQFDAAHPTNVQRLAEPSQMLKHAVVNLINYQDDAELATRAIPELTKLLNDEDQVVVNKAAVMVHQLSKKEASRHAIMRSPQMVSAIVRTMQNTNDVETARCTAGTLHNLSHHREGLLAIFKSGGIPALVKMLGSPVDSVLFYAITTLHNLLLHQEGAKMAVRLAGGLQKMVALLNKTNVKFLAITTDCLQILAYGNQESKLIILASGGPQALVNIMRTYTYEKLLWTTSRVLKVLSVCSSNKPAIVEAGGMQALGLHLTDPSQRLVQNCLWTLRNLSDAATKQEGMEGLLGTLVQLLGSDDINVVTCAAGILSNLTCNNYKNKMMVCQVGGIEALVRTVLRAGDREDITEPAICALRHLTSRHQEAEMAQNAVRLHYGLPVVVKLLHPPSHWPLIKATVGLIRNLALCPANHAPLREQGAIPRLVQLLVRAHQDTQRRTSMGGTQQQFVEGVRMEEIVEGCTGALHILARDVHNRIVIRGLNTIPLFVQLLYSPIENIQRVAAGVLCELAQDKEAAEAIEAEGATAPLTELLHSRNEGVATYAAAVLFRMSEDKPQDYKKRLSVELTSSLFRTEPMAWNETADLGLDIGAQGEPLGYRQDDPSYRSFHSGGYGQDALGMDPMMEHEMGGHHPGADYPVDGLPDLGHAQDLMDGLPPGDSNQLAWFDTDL

Molecular target: N-cadherin (human (endogenous in sNF96.2)) (UniProt P19022)
Assay: co-IP; lysates of sNF96.2 cells incubated 30 min with conditioned media (F+M control or FcoM; also from fibroblasts transfected with Si-Ctr or Si-SLIT2 siRNA); immunoprecipitation with N-cadherin antibody and agarose beads at 4 °C, immunoblot for β-catenin

binding: binds
Substance: β-catenin (from UniProt P35222 1-781)
